PubChem BioAssay AID1259405 – NCATS – 2018

- Assay: 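Knock-downs that lift recombinant protein yield in hamster ovary cells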 (primary screen)
- System: Chinese hamster CHO-K1 ovary cells with stable secreted eGFP expression
- Reagent: single siRNA against mouse genes, 0.8 pmol siRNA per well (2 µl of 400 nM stock)
- Time to read-out: 3 days
- Read-out: 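Per-well intracellular GFP measured by laser scanning cytometry, plus viability from ATP luminescence, each relative to plate median of non-targeting control wells, in %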
- Direction: GFP, % of control: higher = more GFP per well, higher productivity; viability (ATP), % of control: higher = more viable cells (more ATP)
- Call rule: 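Called active when intracellular GFP, relative to negative control, is at or above 120%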
The deposit covers about 50,000 reagents; below is a part drawn at random. About 4,000 of them (8%) were called active. 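Mouse siRNA library applied to hamster cells; one well for each siRNA.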 Reagents against one gene are numbered here.

Pdhx #1
- GFP, % of control: 53.7
- viability (ATP), % of control: 65.5
- call: inactive

Pdhx #2
- GFP, % of control: 104
- viability (ATP), % of control: 73.5
- call: inactive

Tmie #1
- GFP, % of control: 96.9
- viability (ATP), % of control: 67.4
- call: inactive

Tmie #2
- GFP, % of control: 85.3
- viability (ATP), % of control: 78
- call: inactive

Tmie #3
- GFP, % of control: 155
- viability (ATP), % of control: 126
- call: active

Aldh1l1 #1
- GFP, % of control: 102
- viability (ATP), % of control: 92.8
- call: inactive

Aldh1l1 #2
- GFP, % of control: 83
- viability (ATP), % of control: 73.1
- call: inactive

Aldh1l1 #3
- GFP, % of control: 79.1
- viability (ATP), % of control: 73.1
- call: inactive

Elob #1
- GFP, % of control: 80.3
- viability (ATP), % of control: 87.4
- call: inactive

Elob #2
- GFP, % of control: 90.5
- viability (ATP), % of control: 68.8
- call: inactive

Or52n2c #1
- GFP, % of control: 136
- viability (ATP), % of control: 97.5
- call: active

Or52n2c #2
- GFP, % of control: 98.7
- viability (ATP), % of control: 65.6
- call: inactive

Or52n2c #3
- GFP, % of control: 54.4
- viability (ATP), % of control: 81.6
- call: inactive

Acd #1
- GFP, % of control: 48.7
- viability (ATP), % of control: 57.7
- call: inactive

Acd #2
- GFP, % of control: 82.5
- viability (ATP), % of control: 74
- call: inactive

Acd #3
- GFP, % of control: 78.7
- viability (ATP), % of control: 89.3
- call: inactive

Haus4 #1
- GFP, % of control: 75.4
- viability (ATP), % of control: 86.7
- call: inactive

Haus4 #2
- GFP, % of control: 72.7
- viability (ATP), % of control: 78.6
- call: inactive

Haus4 #3
- GFP, % of control: 77.8
- viability (ATP), % of control: 88.6
- call: inactive

Map2k6
- GFP, % of control: 153
- viability (ATP), % of control: 130
- call: active

Irf2bpl #1
- GFP, % of control: 124
- viability (ATP), % of control: 94.9
- call: active

Irf2bpl #2
- GFP, % of control: 78.6
- viability (ATP), % of control: 84.3
- call: inactive

Irf2bpl #3
- GFP, % of control: 65.7
- viability (ATP), % of control: 86.5
- call: inactive

Rpl13 #1
- GFP, % of control: 56.1
- viability (ATP), % of control: 56.2
- call: inactive

Rpl13 #2
- GFP, % of control: 95.9
- viability (ATP), % of control: 67.2
- call: inactive

Rpl13 #3
- GFP, % of control: 48.3
- viability (ATP), % of control: 35.4
- call: inactive

Serp1 #1
- GFP, % of control: 33.2
- viability (ATP), % of control: 57.8
- call: inactive

Serp1 #2
- GFP, % of control: 65.7
- viability (ATP), % of control: 30.2
- call: inactive

Serp1 #3
- GFP, % of control: 52.5
- viability (ATP), % of control: 70.7
- call: inactive

Atp6v1a #1
- GFP, % of control: 74.6
- viability (ATP), % of control: 74.5
- call: inactive

Atp6v1a #2
- GFP, % of control: 79.3
- viability (ATP), % of control: 69.4
- call: inactive

Atp6v1a #3
- GFP, % of control: 73.1
- viability (ATP), % of control: 63.7
- call: inactive

Nrbp1
- GFP, % of control: 71.4
- viability (ATP), % of control: 51.6
- call: inactive

Stmn4 #1
- GFP, % of control: 83.5
- viability (ATP), % of control: 79.3
- call: inactive

Stmn4 #2
- GFP, % of control: 117
- viability (ATP), % of control: 121
- call: inactive

Stmn4 #3
- GFP, % of control: 141
- viability (ATP), % of control: 90.9
- call: active

Ascl3 #1
- GFP, % of control: 89.7
- viability (ATP), % of control: 94.4
- call: inactive

Ascl3 #2
- GFP, % of control: 92.1
- viability (ATP), % of control: 79.1
- call: inactive

Gns #1
- GFP, % of control: 65.9
- viability (ATP), % of control: 65.5
- call: inactive

Gns #2
- GFP, % of control: 128
- viability (ATP), % of control: 87.1
- call: active

Gns #3
- GFP, % of control: 126
- viability (ATP), % of control: 194
- call: active

Records listed so far whose target name starts with P or p (2):
Pdhx #1
- GFP, % of control: 53.7
- viability (ATP), % of control: 65.5
- call: inactive

Pdhx #2
- GFP, % of control: 104
- viability (ATP), % of control: 73.5
- call: inactive
